Measurements reported in PubChem BioAssay AID1224828 (NIAID, 2016).
Here is an unselected part of about 17,000 reagents. Of all reagents, 762 (4.5%) were called active. 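Active calls include both raised and lowered p65 entry, mostly lowered; wells with fewer than 50 cells lack a z-score.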 Raw values vary from plate to plate and are shown uncorrected. Unmarked entries are inactive. Reagents against one gene are numbered here.

Aim: 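Regulators linking TLR4 signalling to p65 nuclear translocation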 (primary screen)
System: mouse RAW264.7 G9 macrophage reporter cells (GFP-p65, Tnf promoter-mCherry)
Reagents: siRNA pool against mouse genes, 100 nM
Duration: 2 days siRNA transfection, then 40 min LPS before fixation
Treatment: LPS (Salmonella minnesota R595) at 10 ng/ml
Measured: 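Imaged p65 nuclear translocation ratio, normalised to the plate median, converted to robust z-scores and averaged across two replicates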
Direction: p65 translocation robust z-score: higher = more nuclear NF-kappaB p65 after LPS than the plate median; nuclear/cytoplasmic p65 ratio: higher = more nuclear NF-kappaB p65
Active means: 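Called active when z exceeds 3.3 or falls under -1.56 (median of Tlr4 controls), giving activity score of at least 50; no calls for control wells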
Calls: active = hit (p65 shift raised or lowered); inactive = no clear change

target gene	reagent	p65 translocation robust z-score	nuclear/cytoplasmic p65 ratio, rep 1	nuclear/cytoplasmic p65 ratio, rep 2	low cell count flag
Srrm4	1	-0.28	1.47	1.44	enough cells to score
Fbln2	1	-0.94	1.39	1.4	enough cells to score
Pcbp1	1	0.74	1.46	1.33	enough cells to score
Kcnc1	1	0.51	1.6	1.4	enough cells to score
Kcnc1	2		1.43	1.65	fewer than 50 cells per well; well left out of scoring
Or56b2	1	-0.39	1.41	1.22	enough cells to score
Cep41	1	1.04	1.43	1.34	enough cells to score
BC051019	1	0	1.62	1.37	enough cells to score
Or4d10c	1	1.1	1.7	1.63	enough cells to score
Miso1	1	0.26	1.55	1.35	enough cells to score
Mgat4f	1		1.28	1.05	fewer than 50 cells per well; well left out of scoring
Ugdh	1	3	1.76	1.58	enough cells to score
Nmu	1	0.36	1.48	1.48	enough cells to score
Tspan13	1	-0.46	1.32	1.14	enough cells to score
Clrn3	1	1.76	1.81	2.01	enough cells to score
1110059G10Rik	1	-0.27	1.46	1.45	enough cells to score
H3c11	1		1.92	1.62	fewer than 50 cells per well; well left out of scoring
Cep295nl	1	-1.3	1.5	1.39	enough cells to score
Gins3	1	0.84	1.45	1.64	enough cells to score
Rab1a	1	0.61	1.58	1.62	enough cells to score
Kat2b	1	0.11	1.49	1.4	enough cells to score
Cga	1	0.61	1.5	1.5	enough cells to score
Ccr4	1	0.72	1.58	1.71	enough cells to score
Fam24a	1	-0.55	1.35	1.32	enough cells to score
Tubb5	1	0.28	1.65	1.45	enough cells to score
Peak1	1	-0.49	1.76	1.32	enough cells to score
Csf1r	1	0.04	1.74	1.36	enough cells to score
Gucy1a1	1	0.3	1.47	1.41	enough cells to score
Insl3	1	0.16	1.47	1.43	enough cells to score
Vax2	1	-0.77	1.42	1.57	enough cells to score
Arcn1	1		0	1.08	fewer than 50 cells per well; well left out of scoring
Slc6a11	1	0.49	1.72	1.48	enough cells to score
Lnx2	1	-0.31	1.69	1.48	enough cells to score
Ccdc14	1	1.09	1.85	1.52	enough cells to score
Zfp113	1		1.51	1.31	fewer than 50 cells per well; well left out of scoring
Sqor	1	1.22	1.54	1.4	enough cells to score
Nlrp3	1	-1.29	1.32	1.19	enough cells to score
Sap30l	1	0.05	1.63	1.61	enough cells to score
Ctdsp1	1	-0.24	1.46	1.33	enough cells to score
Ftdc2	1	0.62	1.55	1.44	enough cells to score
Tmem254	1	0.71	1.58	2.01	enough cells to score
Or8d1b	1	0.63	1.54	1.31	enough cells to score
Thrb	1	-0.22	1.4	1.57	enough cells to score
Orc2	1	-0.19	1.59	1.22	enough cells to score
Or4k2	1	-0.85	1.33	1.17	enough cells to score
Or8s10	1		1.83	1.69	fewer than 50 cells per well; well left out of scoring
Ttc7	1		1.56	1.09	fewer than 50 cells per well; well left out of scoring
Pik3r4	1	-0.23	1.81	1.35	enough cells to score
Slc19a2	1	1.49	1.75	1.71	enough cells to score
Fam243	1		0.888	1.22	fewer than 50 cells per well; well left out of scoring
Bdh2	1	-0.22	1.52	1.54	enough cells to score
Msl3	1	-2.06 (active)	1.5	1.24	enough cells to score
Foxi2	1	-0.34	1.47	1.53	enough cells to score
Acox2	1	0.62	1.74	1.68	enough cells to score
Ect2	1	-1.15	1.38	1.16	enough cells to score
Nudt22	1	-0.49	1.37	1.48	enough cells to score
Col25a1	1	0.5	1.59	1.93	enough cells to score
Sh3gl2	1	0.96	1.69	1.69	enough cells to score
Brd10	1	1.72	1.68	1.76	enough cells to score
